{
  "sequences": {"note": "Chains of the proteins cited; added tags and fusions are not shown. Lines headed by an entry give the natural chain unless they say otherwise; changes in a name come on top.", "UniProt P18054": "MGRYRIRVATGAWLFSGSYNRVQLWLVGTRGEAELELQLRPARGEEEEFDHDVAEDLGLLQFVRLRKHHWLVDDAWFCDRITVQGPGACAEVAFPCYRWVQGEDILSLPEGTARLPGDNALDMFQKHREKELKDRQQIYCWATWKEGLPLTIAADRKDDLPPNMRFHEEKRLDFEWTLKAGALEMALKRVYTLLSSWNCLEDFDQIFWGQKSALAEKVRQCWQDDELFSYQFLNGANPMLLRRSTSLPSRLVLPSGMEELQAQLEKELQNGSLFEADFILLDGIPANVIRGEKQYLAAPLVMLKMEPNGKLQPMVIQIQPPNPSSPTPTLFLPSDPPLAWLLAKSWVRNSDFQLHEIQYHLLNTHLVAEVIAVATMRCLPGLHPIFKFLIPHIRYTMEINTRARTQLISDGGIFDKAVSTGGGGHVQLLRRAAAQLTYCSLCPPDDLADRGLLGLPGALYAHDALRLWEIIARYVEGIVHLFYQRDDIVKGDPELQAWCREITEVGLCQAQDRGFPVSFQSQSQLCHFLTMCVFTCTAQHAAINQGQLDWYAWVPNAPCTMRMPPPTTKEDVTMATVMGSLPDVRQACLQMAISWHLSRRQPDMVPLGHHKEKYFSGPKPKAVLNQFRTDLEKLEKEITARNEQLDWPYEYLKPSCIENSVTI"},
  "source": "PubChem BioAssay AID1671190",
  "about": "(National Center for Advancing Translational Sciences (NCATS), 2021)",
  "note": "Values joined by “and” are separate entries in the source; they are usually repeats but may differ in a detail not shown here. Equal entries are not always repeated. The whole screen tested about 580,000 compounds, of which about 6,100 (1.1%) were called active. The inconclusive results got no clear call from the source; some entries with a clear call stand among them for comparison. Calls come from the whole dose curve; as a rule, active = well fitted inhibition curve with a large enough effect; inconclusive = small, poorly fitted or top-dose-only effect, or another doubt; inactive = no such curve, though single readings can be large or run the other way. Potencies of inconclusive entries are doubtful fits and often do not repeat. % is set by controls: 0 for no effect and ±100 for the full control effect; potency is the fitted concentration of half-maximal effect.",
  "data": [
    {"molecular_target": "Polyunsaturated fatty acid lipoxygenase ALOX12 (Homo sapiens) (UniProt P18054)", "test": "Primary qHTS assay for inhibitors of human arachidonate 12S-lipoxygenase (ALOX12): Round 2", "details": "purified 12hLO, xylenol orange hydroperoxide absorbance; activity change, negative = inhibition: at 108 µM (top of the series) unless noted", "method_in_brief": "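Purified human 12hLO (150 nM final) in 25 mM Hepes, 0.01% Triton X-100, pH 7.0 was preincubated 15 min at room temperature with compound. Then 40 uM arachidonic acid was added, 30 min. Hydroperoxide was read by Fe-XO absorbance ratio 573/405 nm.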", "values": [
      {"smiles": "C#CCNC(=O)C1=C[C@@H](C2CCCCC2)C[C@@H](OCc2ccc(CO)cc2)O1", "Potency": "inconclusive: 44.7 µM [inhibitor, partial curve, poor fit]"},
      {"smiles": "COc1ccccc1-c1nc2ccccc2c(=O)n1O", "Potency": "inconclusive: 7.94 µM [inhibitor, full curve, poor fit]"},
      {"smiles": "Cc1cccc(NS(=O)(=O)c2cc(C(=O)NCCC3=CCCCC3)ccc2Cl)c1", "Potency": "inconclusive: 31.6 µM [inhibitor, single point]"},
      {"smiles": "CCCCC[C@H](C)N1C[C@@H](COCc2ccccc2)Oc2cc(N3CC[C@@H](N(C)C)C3)ccc2S1(=O)=O", "Potency": "inconclusive: 35.5 µM [inhibitor, partial curve, poor fit]"},
      {"smiles": "CCCCCc1c(O)nc(SCC(=O)NCC2CCCO2)[nH]c1=O", "note": "(stereo not drawn)", "activity change, negative = inhibition": "inactive: 2.81%"},
      {"smiles": "CCN1CCN(C(c2cccs2)C(C)NC(=S)Nc2cccc(C)c2C)CC1", "note": "(stereo not drawn)", "activity change, negative = inhibition": "inactive: 0%"},
      {"smiles": "CCOc1ccccc1NC(=S)N1CCCc2ccccc21", "activity change, negative = inhibition": "inactive: -14.9%"},
      {"smiles": "O=C(Nc1ccccc1)O[C@@H]1CO[C@H]2[C@@H]1OC[C@@H]2NC(=S)Nc1ccccc1", "Potency": "active: 70.8 µM"},
      {"smiles": "Cc1ccnc(NC(=O)CNC(=O)c2ccc3ccccc3c2)c1", "activity change, negative = inhibition": "inactive: 0.291%"},
      {"smiles": "COC(=O)[C@@]12CCCN1[C@H](c1ccc(-c3ccc(F)cc3)cc1)[C@H]1C(=O)N(C)C(=O)[C@H]12", "activity change, negative = inhibition": "inactive: -11.1%"},
      {"smiles": "CCOc1ccc(-c2nnc(SCC(=O)Nc3cc(C)on3)o2)cc1", "activity change, negative = inhibition": "inactive: 76.9%"},
      {"smiles": "CCCCCN(CCC(=O)NCCCOC)C(=O)c1ccoc1", "Potency": "inconclusive: 14.1 µM [inhibitor, full curve, poor fit]"},
      {"smiles": "C[C@@H](O)CNC(=O)c1nc(-c2ccc(COc3ccc4c(c3)OCO4)cc2)no1", "activity change, negative = inhibition": "inactive: -8.24%"},
      {"smiles": "COCCn1c(N2CCN(Cc3ccc(Br)cc3)CC2)nc2c1c(=O)[nH]c(=O)n2C", "activity change, negative = inhibition": "inactive: -5.58%"},
      {"smiles": "O=C1NCc2ccccc2CC12CCN(Cc1ccc(Cl)s1)CC2", "Potency": "inconclusive: 35.5 µM [inhibitor, full curve, poor fit]"},
      {"smiles": "Cc1c(C(=O)O)sc(S(=O)(=O)N2CCNCC2)c1C(=O)O", "Potency": "inconclusive: 112 µM [inhibitor, single point]"},
      {"smiles": "COc1ccccc1[C@@H]1CN(C(=O)Cc2nonc2C)C[C@H]1C(=O)O", "activity change, negative = inhibition": "inactive: 15.4%"},
      {"smiles": "COc1ccccc1NC(=O)Cc1cccs1", "Potency": "inconclusive: 0.447 µM [inhibitor, full curve, poor fit]"},
      {"smiles": "CC1C=CCC2C(=O)N(c3cccc(C(=O)NCCc4ccccc4)c3)C(=O)C12", "note": "(stereo not drawn)", "Potency": "inconclusive: 79.4 µM [inhibitor, partial curve, poor fit]"},
      {"smiles": "COc1ccc(N2CC(C(=O)Nc3ccc(S(=O)(=O)N4CCOCC4)cc3)CC2=O)cc1", "note": "(stereo not drawn)", "Potency": "inconclusive: 50.1 µM [inhibitor, partial curve, poor fit]"},
      {"smiles": "COCCNC(=O)COc1ccc(Nc2ccccc2)cc1", "activity change, negative = inhibition": "inactive: -4.6%"},
      {"smiles": "CCCc1c(C(=O)N/N=C/c2ccc(C)s2)nnn1-c1nonc1N", "activity change, negative = inhibition": "inactive: -6.59%"},
      {"smiles": "CCCCCCCCNS(=O)(=O)CCNCc1ccccc1OC", "Potency": "inconclusive: 39.8 µM [inhibitor, partial curve, poor fit]"},
      {"smiles": "c1ccc(COc2ccc(CNc3ccc(Oc4ccccc4)cc3)cc2)cc1", "activity change, negative = inhibition": "inactive: 2.09%"},
      {"smiles": "Cc1cccc(NC(=O)c2n[nH]c([N+](=O)[O-])c2Br)c1C", "Potency": "inconclusive: 2.82 µM [inhibitor, full curve, poor fit]"},
      {"smiles": "Cc1nn(CC(=O)NC2CCC(C)CC2)c(C)c1[N+](=O)[O-]", "note": "(stereo not drawn)", "Potency": "inconclusive: 50.1 µM [inhibitor, partial curve, poor fit]"},
      {"smiles": "Cc1cc(C)c2nc(NCCCNC(=S)NCCCN(C)C)c(C#N)cc2c1", "Potency": "inconclusive: 50.1 µM [inhibitor, partial curve, poor fit]"},
      {"smiles": "FC(F)(F)c1cccc(N2Cc3ccccc3C2)c1", "activity change, negative = inhibition": "inactive: -29.9%"},
      {"smiles": "CCOc1ccc(CN(Cc2cccc(Oc3ncccn3)c2)C2CC2)cc1", "activity change, negative = inhibition": "inactive: 69.8%"},
      {"smiles": "Clc1cccc(-c2cccc3nccn23)c1", "Potency": "inconclusive: 56.2 µM [inhibitor, partial curve, poor fit]"},
      {"smiles": "O=C(O)CC1CCC(=C(Cl)Cl)C1", "note": "(stereo not drawn)", "Potency": "inconclusive: 11.2 µM [inhibitor, full curve, poor fit]"},
      {"smiles": "Cc1cc(OC(=O)c2ccccc2Cl)cc(OC(=O)c2ccccc2Cl)c1", "Potency": "inconclusive: 35.5 µM [inhibitor, partial curve, poor fit]"},
      {"smiles": "O=C1c2cnc(-c3cccc(O)c3)nc2OCCN1c1cccc(C(F)(F)F)c1", "Potency": "inconclusive: 89.1 µM [inhibitor, partial curve]"},
      {"smiles": "CC(=O)c1c(C)[nH]c(C(=O)OC(c2ccccc2)c2ccc(Cl)cc2)c1C", "note": "(stereo not drawn)", "activity change, negative = inhibition": "inactive: -51.4%"},
      {"smiles": "CCOC(=O)c1cc(OC(=O)c2ccccc2Br)n(-c2ccccc2)n1", "Potency": "inconclusive: 44.7 µM [inhibitor, partial curve, poor fit]"},
      {"smiles": "CCOC(=O)C1CCN(C(=O)c2cc3ccc(OC)cc3[nH]2)CC1", "Potency": "inactive"},
      {"smiles": "CCCCCC(=O)N/N=C/c1ccc([N+](=O)[O-])o1", "Potency": "inconclusive: 44.7 µM [inhibitor, partial curve, poor fit]"},
      {"smiles": "Cc1ccc(C)c(NC(=S)NCc2ccc3c(c2)OCO3)c1", "Potency": "inconclusive: 39.8 µM [inhibitor, partial curve, poor fit]"},
      {"smiles": "Cc1ccc(SCC(=O)Nc2nccs2)cc1", "activity change, negative = inhibition": "inactive: -13.8%"},
      {"smiles": "COc1cc(CN(C)C(=O)C2CCN(S(=O)(=O)c3cccs3)CC2)ccc1OC(F)F", "Potency": "inconclusive: 100 µM [inhibitor, single point]"},
      {"smiles": "Cc1ccccc1OCCNCC(C)O", "note": "(stereo not drawn)", "Potency": "inconclusive: 0.891 µM [inhibitor, full curve, poor fit]"},
      {"smiles": "CCCCCCC(=O)Nc1nc(C)c(-c2csc(Nc3ccccc3OC)n2)s1", "Potency": "inconclusive: 50.1 µM [inhibitor, partial curve, poor fit]"},
      {"smiles": "C=CC[C@@H](CC(=O)NCCO)C(=O)NC[C@H](OC(=O)[C@@H](CC=C)Cc1ccc(F)cc1)c1ccccc1", "activity change, negative = inhibition": "inactive: -2.14%"},
      {"smiles": "O=S(=O)(Nc1c(O)ccc2ccccc12)c1ccccc1", "Potency": "inconclusive: 15.8 µM [inhibitor, partial curve, poor fit]"},
      {"smiles": "CNC(=S)NCCc1ccccc1", "Potency": "inconclusive: 44.7 µM [inhibitor, partial curve, poor fit]"},
      {"smiles": "C=CCNc1nc(-c2ccc3c(c2)C(C)C(=O)N3)cs1", "note": "(stereo not drawn)", "Potency": "inconclusive: 14.1 µM [inhibitor, full curve]"},
      {"smiles": "O=C(CNc1ccc(Br)cc1)c1ccc(Br)s1", "Potency": "inconclusive: 39.8 µM [inhibitor, partial curve, poor fit]"},
      {"smiles": "CS(=O)(=O)N(CC(=O)Nc1ccc(CC#N)cc1)c1ccc(C23CC4CC(CC(C4)C2)C3)cc1", "activity change, negative = inhibition": "inactive: 13.8%"},
      {"smiles": "COC(=O)c1sc2nc(N3CCCCC3)c3c(c2c1N)CCCC3", "Potency": "inconclusive: 100 µM [inhibitor, single point]"},
      {"smiles": "CCOc1nc(NC(=O)NS(=O)(=O)Oc2cccc(Cl)c2)nc(-c2ccccc2)n1", "Potency": "inconclusive: 22.4 µM [inhibitor, partial curve, poor fit]"},
      {"smiles": "Cc1ccc(F)c([C@H]2[C@H]3C=CC[C@@H](C)[C@@H]3C(=O)N2Cc2ccccc2)c1", "Potency": "inconclusive: 50.1 µM [inhibitor, partial curve, poor fit]"},
      {"smiles": "Cc1cccc(OCCCC(=O)Nc2nnc(C3CCCO3)s2)c1C", "note": "(stereo not drawn)", "activity change, negative = inhibition": "inactive: 0%"},
      {"smiles": "CC(Sc1nnc(N2CCCCC2)n1-c1ccccc1)c1nc2ccccc2c(=O)[nH]1", "note": "(stereo not drawn)", "activity change, negative = inhibition": "inactive: -4.71%"},
      {"smiles": "CCOc1ccccc1N(CC(=O)Nc1ccc2c(c1)OCO2)S(C)(=O)=O", "Potency": "inconclusive: 15.8 µM [inhibitor, partial curve, poor fit]"},
      {"smiles": "O=C(C[n+]1ccccc1)N/N=C/c1cccc(Cl)c1Cl", "Potency": "inconclusive: 25.1 µM [inhibitor, partial curve, poor fit]"},
      {"smiles": "COC(=O)c1ccc(NC(=O)c2c(Br)cnn2C)cc1", "Potency": "inconclusive: 44.7 µM [inhibitor, partial curve, poor fit]"},
      {"smiles": "COCC(=O)Nc1ccc(-c2c(C(C)C)nn(-c3cccc(F)c3)c2OC(C)=O)cc1", "Potency": "inconclusive: 20 µM [inhibitor, full curve]"},
      {"smiles": "Cc1cc(NC(=O)CNc2cc(S(=O)(=O)N3CCOCC3)ccc2Oc2ccccc2)no1", "activity change, negative = inhibition": "inactive: 38.1%"},
      {"smiles": "CCC(C(=O)Nc1ccccc1)n1nc(-c2cc(C)ccc2C)ccc1=O", "note": "(stereo not drawn)", "Potency": "inconclusive: 141 µM [inhibitor, partial curve, poor fit]"},
      {"smiles": "Cc1ccc(C)c(Cn2c3ccccc3c3cnn(CC(=O)NCc4ccccn4)c(=O)c32)c1", "activity change, negative = inhibition": "inactive: 40.8%"},
      {"smiles": "COc1ccc(-n2c(-c3ccco3)n[nH]c2=S)cc1", "Potency": "inconclusive: 50.1 µM [inhibitor, partial curve, poor fit]"},
      {"smiles": "COc1ccc(OC)c(NC(=O)COC(=O)CCS(=O)(=O)c2ccc(Cl)cc2)c1", "Potency": "inconclusive: 31.6 µM [inhibitor, partial curve, poor fit] and inconclusive: 100 µM [inhibitor, single point]"},
      {"smiles": "COc1ccc(C(=O)NC(=S)NNC(=O)c2ccncc2)cc1Br", "Potency": "inconclusive: 44.7 µM [inhibitor, partial curve, poor fit]"},
      {"smiles": "NS(=O)(=O)c1ccc(CCNC(=O)CSc2nc3ccsc3c(=O)n2CC2CCC(C(=O)O)CC2)cc1", "note": "(stereo not drawn)", "activity change, negative = inhibition": "inactive: -2.49%"},
      {"smiles": "Cc1ccc(CN2C(=O)C(=O)c3cc(Br)cc(C)c32)cc1", "Potency": "active: 14.1 µM"},
      {"smiles": "COC(=O)c1[nH]c2cc(OC)ccc2c1N=CN(C)C", "activity change, negative = inhibition": "inactive: 14%"},
      {"smiles": "CCOC(=O)c1cccn1C1C(=O)N(Cc2ccc(OC)cc2)c2c(F)cccc21", "note": "(stereo not drawn)", "Potency": "inconclusive: 112 µM [inhibitor, single point]"},
      {"smiles": "NCC#Cc1cccc(C(F)(F)F)c1", "Potency": "inconclusive: 28.2 µM [inhibitor, partial curve, poor fit]"}
    ]}
  ]
}
